Test results: article PMC5261026
No constants are given. Whether binding was seen depends on the method and setting. In cells and extracts the contact can be indirect. Some entries that bind do so weakly or less than the wild type.

Protein sequences, listed by entry. Tags and fused reporters are not part of them. Lines headed by an entry give the natural chain unless they say otherwise; changes in a name come on top.
UniProt Q99814: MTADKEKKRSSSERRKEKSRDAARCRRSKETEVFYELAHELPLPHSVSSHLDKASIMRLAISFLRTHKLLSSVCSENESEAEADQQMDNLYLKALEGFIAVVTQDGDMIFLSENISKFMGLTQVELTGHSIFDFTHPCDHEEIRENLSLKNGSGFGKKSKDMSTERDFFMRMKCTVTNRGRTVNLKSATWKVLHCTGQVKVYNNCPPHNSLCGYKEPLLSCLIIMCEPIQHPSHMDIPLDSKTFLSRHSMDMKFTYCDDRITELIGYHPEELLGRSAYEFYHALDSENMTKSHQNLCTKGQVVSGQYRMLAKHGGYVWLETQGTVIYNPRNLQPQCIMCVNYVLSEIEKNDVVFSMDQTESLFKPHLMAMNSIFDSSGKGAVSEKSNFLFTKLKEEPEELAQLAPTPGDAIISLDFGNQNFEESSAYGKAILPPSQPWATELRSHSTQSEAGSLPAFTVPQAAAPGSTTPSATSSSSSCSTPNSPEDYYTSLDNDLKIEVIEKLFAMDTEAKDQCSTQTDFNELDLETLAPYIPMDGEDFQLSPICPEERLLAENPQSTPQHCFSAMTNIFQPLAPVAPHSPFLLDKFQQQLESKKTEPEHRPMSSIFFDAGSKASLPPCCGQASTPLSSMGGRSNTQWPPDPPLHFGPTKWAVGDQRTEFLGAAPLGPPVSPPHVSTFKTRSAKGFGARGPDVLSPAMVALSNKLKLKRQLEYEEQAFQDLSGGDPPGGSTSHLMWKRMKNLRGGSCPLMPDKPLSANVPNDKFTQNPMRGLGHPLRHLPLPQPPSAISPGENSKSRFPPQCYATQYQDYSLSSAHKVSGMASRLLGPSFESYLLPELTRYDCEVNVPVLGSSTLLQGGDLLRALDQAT
UniProt P10451: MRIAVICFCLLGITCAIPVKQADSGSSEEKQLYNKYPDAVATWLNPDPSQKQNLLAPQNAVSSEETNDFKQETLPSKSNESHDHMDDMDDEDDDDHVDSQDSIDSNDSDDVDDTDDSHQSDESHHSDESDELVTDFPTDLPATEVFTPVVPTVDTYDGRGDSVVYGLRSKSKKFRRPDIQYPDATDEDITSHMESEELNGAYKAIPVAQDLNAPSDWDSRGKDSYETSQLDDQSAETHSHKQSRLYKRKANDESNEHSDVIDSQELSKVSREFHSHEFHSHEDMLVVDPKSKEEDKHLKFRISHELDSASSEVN

Experiments:
HA-HIF2α = HA-HIF2α (UniProt Q99814); experiment: co-IP; Co-IP analysis of V5-iOPN and HA-HIF2α proteins; cells and direction not told in the main text
[1] = target: endogenous HIF2α (human (endogenous in 293T, Hep3B, HCCLM3)) (UniProt Q99814); experiment: co-IP; lysates from 293T, Hep3B and HCCLM3 cells immunoprecipitated with denoted antibodies; HIF2α and OPN levels then assessed; endogenous proteins

| Substance | binding (HA-HIF2α) | binding [1] |
| --- | --- | --- |
| V5-iOPN (intracellular form of human OPN) (from UniProt P10451 16-314) (domain or fragment) | binds | – |
| endogenous intracellular/nuclear osteopontin (iOPN) (from UniProt P10451 17-314) | – | binds |
